PubChem BioAssay AID1159584, Peter MacCallum Cancer Centre, 2016
Aim: 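Genes that CDH1-null MCF10A cells selectively depend on to survive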 (primary screen). Cell system: human MCF10A breast epithelial cells, parental and CDH1-null. Reagent: siRNA against human genes. Measurement: 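Cell viability by CellTiter-Glo ATP luminescence, each line scaled to the mean of mock wells across plates, then CDH1-null over parental ratio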. Reading the numbers: CDH1-null / parental viability ratio: higher = CDH1-null cells survive relatively better than parental; CDH1-null viability vs mock: higher = more viable CDH1-null cells.
The deposit covers about 18,000 reagents; this is an unselected part. Further read-outs or replicates are left out here. The record does not give: the amount of reagent, the time to read-out.

{"gene": "ANAPC10 (anaphase promoting complex subunit 10)", "CDH1-null / parental viability ratio": 1.2, "CDH1-null viability vs mock (fraction of mock)": 1.12}
{"gene": "DPP3 (dipeptidyl peptidase 3)", "CDH1-null / parental viability ratio": 1.14, "CDH1-null viability vs mock (fraction of mock)": 0.96}
{"gene": "ZNF714 (zinc finger protein 714)", "CDH1-null / parental viability ratio": 1.24, "CDH1-null viability vs mock (fraction of mock)": 0.84}
{"gene": "ASCC1 (activating signal cointegrator 1 complex subunit 1)", "CDH1-null / parental viability ratio": 0.94, "CDH1-null viability vs mock (fraction of mock)": 1.19}
{"gene": "LPAR2 (lysophosphatidic acid receptor 2)", "CDH1-null / parental viability ratio": 0.84, "CDH1-null viability vs mock (fraction of mock)": 0.74}
{"gene": "SOHLH1", "CDH1-null / parental viability ratio": 0.93, "CDH1-null viability vs mock (fraction of mock)": 0.86}
{"gene": "YJEFN3 (YjeF N-terminal domain containing 3)", "CDH1-null / parental viability ratio": 1.02, "CDH1-null viability vs mock (fraction of mock)": 0.88}
{"gene": "SCNN1G (sodium channel epithelial 1 subunit gamma)", "CDH1-null / parental viability ratio": 1.04, "CDH1-null viability vs mock (fraction of mock)": 0.84}
{"gene": "ZNF660 (zinc finger protein 660)", "CDH1-null / parental viability ratio": 1.14, "CDH1-null viability vs mock (fraction of mock)": 0.89}
{"gene": "UMODL1 (uromodulin like 1)", "CDH1-null / parental viability ratio": 0.91, "CDH1-null viability vs mock (fraction of mock)": 0.86}
{"gene": "TSPAN15 (tetraspanin 15)", "CDH1-null / parental viability ratio": 0.97, "CDH1-null viability vs mock (fraction of mock)": 0.74}
{"gene": "DYSF (dysferlin)", "CDH1-null / parental viability ratio": 1.25, "CDH1-null viability vs mock (fraction of mock)": 0.99}
{"gene": "HACL2 (2-hydroxyacyl-CoA lyase 2)", "CDH1-null / parental viability ratio": 0.95, "CDH1-null viability vs mock (fraction of mock)": 0.79}
{"gene": "CEACAM6 (CEA cell adhesion molecule 6)", "CDH1-null / parental viability ratio": 1.15, "CDH1-null viability vs mock (fraction of mock)": 0.92}
{"gene": "EMP1 (epithelial membrane protein 1)", "CDH1-null / parental viability ratio": 1.03, "CDH1-null viability vs mock (fraction of mock)": 0.95}
{"gene": "SUPT16H (SPT16 homolog, facilitates chromatin remodeling subunit)", "CDH1-null / parental viability ratio": 1.06, "CDH1-null viability vs mock (fraction of mock)": 0.83}
{"gene": "PMS1 (PMS1 homolog 1, mismatch repair system component)", "CDH1-null / parental viability ratio": 1.01, "CDH1-null viability vs mock (fraction of mock)": 1.16}
{"gene": "OR2AG1 (olfactory receptor family 2 subfamily AG member 1)", "CDH1-null / parental viability ratio": 0.96, "CDH1-null viability vs mock (fraction of mock)": 0.46}
{"gene": "HOOK2 (hook microtubule tethering protein 2)", "CDH1-null / parental viability ratio": 1.13, "CDH1-null viability vs mock (fraction of mock)": 0.7}
{"gene": "SCAMP2", "CDH1-null / parental viability ratio": 0.93, "CDH1-null viability vs mock (fraction of mock)": 1}
{"gene": "OR13G1 (olfactory receptor family 13 subfamily G member 1)", "CDH1-null / parental viability ratio": 0.97, "CDH1-null viability vs mock (fraction of mock)": 0.66}
{"gene": "SSU72 (SSU72 homolog, RNA polymerase II CTD phosphatase)", "CDH1-null / parental viability ratio": 0.87, "CDH1-null viability vs mock (fraction of mock)": 0.7}
{"gene": "PACSIN3 (protein kinase C and casein kinase substrate in neurons 3)", "CDH1-null / parental viability ratio": 0.98, "CDH1-null viability vs mock (fraction of mock)": 0.82}
{"gene": "KLF7 (KLF transcription factor 7)", "CDH1-null / parental viability ratio": 0.9, "CDH1-null viability vs mock (fraction of mock)": 0.7}
{"gene": "GPR88 (G protein-coupled receptor 88)", "CDH1-null / parental viability ratio": 0.79, "CDH1-null viability vs mock (fraction of mock)": 0.65}
{"gene": "JUP (junction plakoglobin)", "CDH1-null / parental viability ratio": 0.96, "CDH1-null viability vs mock (fraction of mock)": 0.46}
{"gene": "SLC25A30", "CDH1-null / parental viability ratio": 0.98, "CDH1-null viability vs mock (fraction of mock)": 0.92}
{"gene": "SLC9A1", "CDH1-null / parental viability ratio": 1.17, "CDH1-null viability vs mock (fraction of mock)": 0.84}
{"gene": "ANKRD9 (ankyrin repeat domain 9)", "CDH1-null / parental viability ratio": 0.96, "CDH1-null viability vs mock (fraction of mock)": 0.85}
{"gene": "NECTIN1 (nectin cell adhesion molecule 1)", "CDH1-null / parental viability ratio": 1.14, "CDH1-null viability vs mock (fraction of mock)": 0.96}
{"gene": "NMD3 (NMD3 ribosome export adaptor)", "CDH1-null / parental viability ratio": 0.92, "CDH1-null viability vs mock (fraction of mock)": 0.74}
{"gene": "TSEN15 (tRNA splicing endonuclease subunit 15)", "CDH1-null / parental viability ratio": 0.79, "CDH1-null viability vs mock (fraction of mock)": 0.82}
{"gene": "DCAF11 (DDB1 and CUL4 associated factor 11)", "CDH1-null / parental viability ratio": 1.01, "CDH1-null viability vs mock (fraction of mock)": 0.91}
{"gene": "KIF3A (kinesin family member 3A)", "CDH1-null / parental viability ratio": 0.88, "CDH1-null viability vs mock (fraction of mock)": 0.93}
{"gene": "NRARP (NOTCH regulated ankyrin repeat protein)", "CDH1-null / parental viability ratio": 1.06, "CDH1-null viability vs mock (fraction of mock)": 0.76}
{"gene": "PARP16 (poly(ADP-ribose) polymerase family member 16)", "CDH1-null / parental viability ratio": 0.95, "CDH1-null viability vs mock (fraction of mock)": 0.36}
{"gene": "VN1R5 (vomeronasal 1 receptor 5 (gene/pseudogene))", "CDH1-null / parental viability ratio": 0.87, "CDH1-null viability vs mock (fraction of mock)": 1}
{"gene": "CYP27C1 (cytochrome P450 family 27 subfamily C member 1)", "CDH1-null / parental viability ratio": 0.6, "CDH1-null viability vs mock (fraction of mock)": 0.36}
{"gene": "IL18 (interleukin 18)", "CDH1-null / parental viability ratio": 1, "CDH1-null viability vs mock (fraction of mock)": 0.87}
{"gene": "DHX34 (DExH-box helicase 34)", "CDH1-null / parental viability ratio": 0.95, "CDH1-null viability vs mock (fraction of mock)": 0.7}
{"gene": "SLC29A4", "CDH1-null / parental viability ratio": 1.25, "CDH1-null viability vs mock (fraction of mock)": 0.55}
{"gene": "CTSB (cathepsin B)", "CDH1-null / parental viability ratio": 1.32, "CDH1-null viability vs mock (fraction of mock)": 0.5}
{"gene": "MTMR11 (myotubularin related protein 11)", "CDH1-null / parental viability ratio": 1.09, "CDH1-null viability vs mock (fraction of mock)": 0.72}
{"gene": "ARL5A (ARF like GTPase 5A)", "CDH1-null / parental viability ratio": 0.87, "CDH1-null viability vs mock (fraction of mock)": 0.76}
{"gene": "ORM1 (orosomucoid 1)", "CDH1-null / parental viability ratio": 0.97, "CDH1-null viability vs mock (fraction of mock)": 0.72}

Part of the list above, limited to “CDH1-null / parental viability ratio”:
SLC9A1 = 1.17
ANKRD9 (ankyrin repeat domain 9) = 0.96
NECTIN1 (nectin cell adhesion molecule 1) = 1.14
